The text below walks through data of article PMC11943061.

Amino acid sequences for entries named in this document (tags omitted).
UniProt P02340: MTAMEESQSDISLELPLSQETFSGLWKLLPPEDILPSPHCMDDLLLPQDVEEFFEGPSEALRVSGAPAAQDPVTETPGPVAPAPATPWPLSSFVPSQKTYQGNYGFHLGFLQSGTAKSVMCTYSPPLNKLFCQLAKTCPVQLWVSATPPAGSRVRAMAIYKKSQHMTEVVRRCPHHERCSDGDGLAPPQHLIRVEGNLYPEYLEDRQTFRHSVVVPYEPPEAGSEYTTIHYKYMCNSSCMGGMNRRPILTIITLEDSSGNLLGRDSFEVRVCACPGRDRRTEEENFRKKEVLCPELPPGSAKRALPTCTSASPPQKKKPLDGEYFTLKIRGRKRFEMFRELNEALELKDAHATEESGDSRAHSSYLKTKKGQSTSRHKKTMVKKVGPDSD

Results are given in words; binding and its absence hold for the method and conditions named. Binding seen in cells or lysates may run through a third protein. Some entries that bind do so weakly or less than the wild type.

Assay [1] addresses Transferrin receptor 1 (TFRC) (not stated (in mouse ATDC5 cells; endogenous or from the Flag-tagged plasmid not told)) (UniProt Q62351). The experiment in a line: co-IP; cell lysate (lysis buffer with 1% PMSF and 1% phosphatase inhibitor) treated with RNase A (10 ug/mL); incubated with IgG or the corresponding antibodies overnight at 4 °C, Protein A/G beads 3-4 h, washed 3 times with lysis buffer; Western blot. A general note: In western blotting, separated proteins are transferred to a membrane and probed.

Assay [2] addresses T1, SLC39A14 (solute carrier family 39 member 14) (mouse (endogenous in ATDC5)) (UniProt Q75N73).
T1 sequence: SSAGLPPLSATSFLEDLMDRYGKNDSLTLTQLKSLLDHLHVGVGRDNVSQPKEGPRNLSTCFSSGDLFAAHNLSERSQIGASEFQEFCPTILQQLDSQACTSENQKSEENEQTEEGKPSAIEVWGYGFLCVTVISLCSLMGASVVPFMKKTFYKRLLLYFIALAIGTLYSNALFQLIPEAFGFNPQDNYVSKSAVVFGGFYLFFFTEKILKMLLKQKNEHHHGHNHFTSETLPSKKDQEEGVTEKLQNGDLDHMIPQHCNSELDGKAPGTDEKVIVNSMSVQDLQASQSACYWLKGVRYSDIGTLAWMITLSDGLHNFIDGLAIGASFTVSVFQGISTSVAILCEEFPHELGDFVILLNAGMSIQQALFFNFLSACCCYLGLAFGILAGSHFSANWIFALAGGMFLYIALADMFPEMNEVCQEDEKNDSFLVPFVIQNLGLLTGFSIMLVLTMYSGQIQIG
Described as above.

Take p53 (from UniProt P02340 1-390): the binding entry was “no binding” in assay [1] and “binds” in assay [2].
